Measurements reported in PubChem BioAssay AID504834 (National Center for Advancing Translational Sciences (NCATS), 2011).
The whole screen tested about 320,000 compounds, of which about 22,000 (6.9%) were called active. The shares of active, inactive and inconclusive entries below differ from those in the screen. Calls follow the shape of the dose curve; as a rule, active = well fitted inhibition curve with a large enough effect; inconclusive = small, poorly fitted or top-dose-only effect, or another doubt; inactive = no such curve, though single readings can be large or run the other way. Potencies beside an inconclusive call are fits to weak or partial responses and may not hold up.

assay: Primary qHTS for delayed death inhibitors of the malarial parasite plastid, 96 hour incubation; details: P. falciparum luciferase reporter growth; series mostly up to 28.7 µM
Method in brief: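 Compounds incubated with erythrocytes infected by luciferase-expressing P. falciparum (2% hematocrit, 0.05% parasitemia final) for 96 hours, 37 C in 5% CO2. Growth inhibition scored as decreased luciferase luminescence.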
Potency is read from the fitted curve at half-maximal effect.

Row | SMILES | Potency
1 | Cc1cc2[nH]c(=O)c(=O)[nH]c2cc1S(=O)(=O)Nc1cccc(F)c1 | inactive
2 | NS(=O)(=O)c1ccc2ccccc2c1 | inactive
3 | O=C(CCc1ccccc1)Nc1nc2nc(-c3ccccc3)cc(=O)n2[nH]1 | inactive
4 | O=C(NNc1cc(C(F)(F)F)nc2ccccc12)Nc1cccc(Cl)c1 | inconclusive: 0.828 µM [inhibitor, full curve, poor fit]
5 | N#Cc1c(-c2ccc(Cl)cc2)c2c([nH]c1=O)-c1ccccc1OC2 | inactive
6 | O=C(Nc1ccccc1F)c1ccc(CSc2ncccn2)cc1 | inconclusive: 13.1 µM [inhibitor, single point]
7 | COc1cc(C(=O)N/N=C/c2ccsc2C)cc(OC)c1OC | inconclusive: 0.233 µM [inhibitor, full curve, poor fit]
8 | COc1ccccc1N(CC1CO1)S(=O)(=O)c1ccccc1 (stereo not drawn) | inconclusive: 18.5 µM [inhibitor, single point]
9 | CCOc1ccc(S(=O)(=O)N2CCN(CC(O)COc3cccc([N+](=O)[O-])c3)CC2)cc1 (stereo not drawn) | inconclusive: 3.7 µM [inhibitor, full curve]
10 | C/C(=N/N=C/c1ccccc1O)c1ccccc1O | inactive
11 | Cc1[nH]nc2c1C(c1ccc(O)cc1)C1=C(CC(C)(C)CC1=O)N2 (stereo not drawn) | inconclusive: 18.5 µM [inhibitor, single point]
12 | CCc1ccc2[nH]c(=O)c(CN(CCN3CCCC3)C(=O)NC3CCCCC3)cc2c1 | inconclusive: 11.7 µM [inhibitor, single point]
13 | CCc1nnc(N/N=C/c2ccccc2Cl)n1N | inconclusive: 0.0657 µM [inhibitor, full curve, poor fit]
14 | COc1cccc(-c2ccc(SCC(=O)NC3CCCC3)nn2)c1 | inconclusive: 16.5 µM [inhibitor, partial curve, poor fit]
15 | Nc1ccc(-c2nc3ccc(N)cc3[nH]2)cc1 | inconclusive: 5.22 µM [inhibitor, partial curve]
16 | O=C(COc1cccc2c1CCNC2=O)Nc1ccc(F)cc1 | inactive
17 | O=C(CNC(=O)c1ccccc1F)Nc1ccccc1C(F)(F)F | inactive
18 | CCCCCCCNC(=O)C1(CC2CC(c3ccc(Cl)cc3)=NO2)CCN(C(=O)c2ccccc2)CC1 (stereo not drawn) | active: 9.28 µM
19 | COCCCNC(=O)c1c(N)n(-c2ccccc2)c2nc3ccccc3nc12 | inconclusive: 9.28 µM [inhibitor, single point]
20 | COc1cc(NC(=O)CN2C(=O)NC(C)(c3ccc(OC(F)F)cc3)C2=O)cc(OC)c1OC (stereo not drawn) | inactive
21 | Cc1ccc(NC(=O)C2CCCCC2C(=O)O)cc1Cl (stereo not drawn) | inconclusive: 20.8 µM [inhibitor, partial curve, poor fit]
22 | Cc1cc(C(=O)N/N=C\c2cc(C(C)(C)C)c(O)c(C(C)(C)C)c2)n[nH]1 | inactive
23 | Cc1cccc2cc(C#N)c(NCCCn3ccnc3)nc12 | inconclusive: 18.5 µM [inhibitor, single point]
24 | CN(CCCNC(=O)CCCOc1cc(=O)n(C)c2ccccc12)Cc1ccccc1 | inconclusive: 20.8 µM [inhibitor, partial curve, poor fit]
25 | Cc1cccc(C(=O)N2CCC(=O)N(C(COCc3cccc(Cl)c3)Cc3ccccc3)CC2)c1 (stereo not drawn) | inconclusive: 14.7 µM [inhibitor, partial curve, poor fit]

Row | SMILES | Potency
26 | C=CCc1c(C)nc(-c2ccccc2)nc1N/N=C/c1ccccc1 | inconclusive: 10.4 µM [inhibitor, single point]
27 | CN(CC(=O)Nc1ccc(Cl)cc1)c1ccc(S(=O)(=O)N2CCCCC2)cc1[N+](=O)[O-] | active: 2.94 µM
28 | Cc1c(C(=O)O)oc2ccc(S(=O)(=O)N3CCCC3)cc12 | inconclusive: 18.5 µM [inhibitor, single point]
29 | O=C1[C@@H]2Cc3c([nH]c4ccccc34)C(c3ccccc3)N2C(=O)CN1C1CCN(Cc2ccccc2)CC1 (stereo partly drawn) | active: 0.738 µM
30 | CSc1ccc(Cl)c(C(=O)OCC(=O)N2CCNC2=O)c1 | inactive
31 | CCN(CC)CCn1c(NS(=O)(=O)c2ccc(Cl)cc2)nc2ccccc21 | inconclusive: 18.5 µM [inhibitor, single point]
32 | Cc1[nH]n(-c2ccc(Cl)cc2)c(=O)c1/C=N/n1c(C)nc2ccccc2c1=O | inconclusive: 1.65 µM [inhibitor, partial curve, poor fit]
33 | CCC(C)(C)n1nnnc1C(c1ccc2ncccc2c1)N1CCN2CCCC2C1 (stereo not drawn) | inactive
34 | Cc1ccc(C)c(-n2c(CNc3ccc(F)cc3)nnc2SCC(N)=O)c1 | inactive
35 | COc1ccc(COc2ccccc2C(N)=O)cc1F | inactive
36 | O=c1ccc(-c2ccccc2)nn1Cc1ccccc1F | active: 13.1 µM
37 | COc1ccc(CC(=O)NCC2CCCN(Cc3ccc(F)cc3F)C2)cc1 (stereo not drawn) | inconclusive: 14.7 µM [inhibitor, single point]
38 | CCn1c(/C=C/c2cc[n+](C)cc2)nc2ccccc21 | inconclusive: 16.5 µM [inhibitor, partial curve, poor fit]
39 | CC1CCCC(n2cnc3cc(C(=O)O)ccc32)C1C (stereo not drawn) | inconclusive: 13.1 µM [inhibitor, partial curve, poor fit]
40 | O=C(CNc1ccc(F)cc1)c1ccccc1 | inactive
41 | CCn1nnnc1SCC(=O)c1ccc(C)cc1C | active: 7.38 µM
42 | Cc1ccc(OC(C)C(=O)Nc2ccc3c(c2)n(C)c(=O)n3C)cc1C (stereo not drawn) | inconclusive: 20.8 µM [inhibitor, single point]
43 | CC(C)OCCCNC(=O)Cn1ccc2cc(S(=O)(=O)N3CCCCCC3)ccc21 | inconclusive: 5.22 µM [inhibitor, partial curve]
44 | COc1cccc(-n2nnc3c(=O)n(Cc4c(F)cccc4Cl)cnc32)c1 | active: 9.28 µM
45 | N#CC1=C(N)C2=CCCC[C@H]2[C@H](c2ccc(Br)cc2)C1(C#N)C#N | inconclusive: 13.1 µM [inhibitor, single point]
46 | CC(=O)NCCN=Cc1sc2ccccc2c1O | active: 3.7 µM
47 | CCNC(=S)NCc1ccc2[nH]c(C)cc2c1 | inactive
48 | Cc1ccc(C(C)C)cc1C(=O)CC1(O)C(=O)N(C)c2ccccc21 (stereo not drawn) | inconclusive: 10.4 µM [inhibitor, single point]
49 | Cc1nn(Cc2ccccc2)c2c1C(c1ccc(Cl)cc1)C(C#N)=C(N)O2 (stereo not drawn) | active: 1.17 µM
50 | Clc1cccc(CSc2nnc([C@@H]3CCCN3)o2)c1 | inconclusive: 0.147 µM [inhibitor, full curve, poor fit]

Row | SMILES | Potency
51 | CC(C)CC(=O)Nc1ccc(Oc2ccc(NC(=O)CC(C)C)cc2)cc1 | inconclusive: 4.15 µM [inhibitor, single point]
52 | CCOC(=O)C1(Cc2ccccc2)CCN(Cc2csc(C(C)=O)c2)CC1 | inconclusive: 13.1 µM [inhibitor, single point]
53 | COc1ccc(NC(=S)N2CCN(Cc3ccccc3)CC2)cc1 | inconclusive: 6.57 µM [inhibitor, partial curve, poor fit]
54 | COc1ccc(S(=O)(=O)N2CCN(C(=O)c3sccc3-c3ccccc3)CC2)cc1 | inconclusive: 10.4 µM [inhibitor, partial curve]
55 | COc1cc(S(=O)(=O)n2nnc3ccccc32)c(OC)cc1Cl | active: 9.28 µM
56 | COc1ccc(-c2cc(C#N)nc(N3CCNCC3)n2)cc1 | active: 2.62 µM
57 | Cc1cc(C(=O)Nc2ncn[nH]2)ccc1[N+](=O)[O-] | inactive
58 | CCCCC(=O)N/N=C(\C)CC(=O)Nc1cc(Cl)ccc1OC | inactive
59 | Oc1ccc(C2=NNC(=NCc3ccc4c(c3)OCO4)SC2)c(O)c1 | inconclusive: 14.7 µM [inhibitor, partial curve, poor fit]
60 | O=C(COc1ccc(Br)cc1)NC(=S)Nc1ccccc1N1CCOCC1 | inconclusive: 11.7 µM [inhibitor, single point]
61 | O=C(NCc1ccc(F)cc1)C1CCC(CNc2c(N3CCCCC3)c(=O)c2=O)CC1 (stereo not drawn) | inconclusive: 10.4 µM [inhibitor, partial curve, poor fit]
62 | COC(=O)c1cccc(Nc2ccc([N+](=O)[O-])cn2)c1 | inconclusive: 2.08 µM [inhibitor, full curve]
63 | CCc1ccc(N(CC(=O)NC2CCCCC2)C(=O)CCC(=O)Nc2ccccn2)cc1 | inconclusive: 10.4 µM [inhibitor, partial curve]
64 | COCCCn1c(=NC(C)=O)c(C#N)cc2c(=O)n3cccc(C)c3nc21 | inconclusive: 1.85 µM [inhibitor, full curve, poor fit]
65 | COc1ccc(C(NC(=O)CNC(C)=O)C(=O)Nc2ccc(C(C)C)cc2)cc1 (stereo not drawn) | inconclusive: 2.62 µM [inhibitor, single point]
66 | N=c1c(C(=O)NCCN2CCOCC2)cc2c(=O)n3ccccc3nc2n1Cc1ccc(F)cc1 | active: 10.4 µM
67 | CCN(CC)c1ccc(CNc2ccc3c(c2)ncn3C(C)(C)C)cc1 | inactive
68 | Fc1ccc(NC(=S)NCc2ccccn2)cc1 | inactive
69 | CC(C)C1Oc2ccccc2N(CC(=O)N(C)C2CCCCC2)C1=O (stereo not drawn) | inactive
70 | C[N+](C)(C)c1ccccc1 | inconclusive: 0.928 µM [inhibitor, partial curve, poor fit]
71 | Cc1cc(C)c(C)c(S(=O)(=O)Nc2ccc(OCC(=O)O)cc2)c1C | inconclusive: 18.5 µM [inhibitor, single point]
72 | C[N+]1(CCNC(=O)/C=N/O)CCCCC1 | inconclusive: 18.5 µM [inhibitor, single point]
73 | CN(CC(=O)Nc1ccc(S(=O)(=O)N2CCCC2)cc1)Cc1ccc(Cl)cc1 | active: 8.28 µM

4 compounds drawn at random from those above:
Row | SMILES | Potency
63 | CCc1ccc(N(CC(=O)NC2CCCCC2)C(=O)CCC(=O)Nc2ccccn2)cc1 | inconclusive: 10.4 µM [inhibitor, partial curve]
59 | Oc1ccc(C2=NNC(=NCc3ccc4c(c3)OCO4)SC2)c(O)c1 | inconclusive: 14.7 µM [inhibitor, partial curve, poor fit]
64 | COCCCn1c(=NC(C)=O)c(C#N)cc2c(=O)n3cccc(C)c3nc21 | inconclusive: 1.85 µM [inhibitor, full curve, poor fit]
66 | N=c1c(C(=O)NCCN2CCOCC2)cc2c(=O)n3ccccc3nc2n1Cc1ccc(F)cc1 | active: 10.4 µM

3 structures out of the list, arranged by formula weight, low to high:
Row | SMILES | Potency
72 | C[N+]1(CCNC(=O)/C=N/O)CCCCC1 | inconclusive: 18.5 µM [inhibitor, single point]
55 | COc1cc(S(=O)(=O)n2nnc3ccccc32)c(OC)cc1Cl | active: 9.28 µM
60 | O=C(COc1ccc(Br)cc1)NC(=S)Nc1ccccc1N1CCOCC1 | inconclusive: 11.7 µM [inhibitor, single point]
